# From PubChem BioAssay AID1347423 (Functional Genomics Laboratory (NCATS/FGL), 2020)
# Hit rate of the full screen: of about 52,000 sequences, about 210 (0.4%) were called active.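 How the source made its calls: active means gene whose silencing raises cell survival under the drug, median off-target-corrected z-score across its silencing RNAs 2 or more; inactive means the rest.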 The list shows a part of the results.
# Assay: Resistance to Poly (ADP-Ribose) Polymerase inhibitor: Gene Identification via Genome-wide siRNA Screen
# Conditions: mouse BRCA2 R2336H ES cells, olaparib, CellTiter-Glo viability; stronger effect = higher value
# Procedure, shortened: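 Mouse BRCA2 R2336H ES cells were reverse-transfected with siRNA (20 nM final), treated at 48 h with 500 nM olaparib, and read by CellTiter-Glo after 72 h. Scores: MAD-based z per siRNA, median per gene, seed off-target correction.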
row,Sequence,z-score
1,CCCUAGAAUUCCAAAGAAATT against Sox7,inactive: 0.358
2,GGAGACCACUAGCUUCAAUTT against B430306N03Rik,inactive: 0.283
3,CCAGAAUGACGAUGCUGAATT against Ssrp1,inactive: -2.55
4,GGUUAUCCUCAUUGAUCCGTT against Rpl15,inactive: -2.09
5,GGAAGUCACCAUCAACCAGTT against Krt2-4,inactive: 0.152
6,GGGAAAACUUGGGUAUUUCTT against Pgrmc1,inactive: 0.906
7,CCGGACCUUAAAAAUGGGCTT against 4930465K10Rik,inactive: -0.256
8,GUAGAAAACAUCUCACAAUTT against Krtap21-1,inactive: 2.02
9,GGCCAAAGUCGAAUCAUAUTT against Hrmt1l1,inactive: -0.564
10,CCCUAUGGACUGAGUUUGUTT against Olfr183,inactive: -0.527
11,GGUAACUAACCUUAAUCUUTT against Slc16a1,inactive: 2.33
12,GCUACCUGCUCUAUACAUGTT against Crlf1,inactive: -0.169
13,GCACUCCUGAAAAUCACCUTT against E430019B13Rik,inactive: 1.59
14,GGACCACAGAUGAAUUGGATT against Relb,inactive: 1.67
15,CCACAAAGAAUGCAUUACUTT against BC022146,inactive: -1.42
16,GGCAAAGAGUGGUAAGAGUTT against Olfr1166,inactive: -0.938
17,GGAAGCCUUCACAAUCAUGTT against Myl2,inactive: 0.274
18,CCGUUUCUGUAUGACCUGGTT against Rbbp7,inactive: -1.88
19,GAAACUUCCUAAAUAACUUTT against V1rh5,inactive: 0.645
20,GGCAAUUCUUGACAAGAAUTT against Rbms3,inactive: 0.956
21,GGAAGAAAAGAAGCUUUUGTT against Palmd,inactive: 0.145
22,AUGCACCAUGCCGUUGACUTT against Oxct2b,inactive: 1.19
23,GGAGGUGGAAUACUGCAUCTT against 4931406B18Rik,inactive: -0.117

row,Sequence,z-score
1,GGUGAAGAUGCAGACCUUUTT against Slc25a15,inactive: -0.0438
2,CCUCUCCUAUUCCUAGUGUTT against Olfr183,inactive: -0.186
3,GGAAAUCAUGAAGCUGAAATT against Clpp,inactive: 0.694
4,GGCCCAGGUGGAUAGUUAUTT against AU016693,inactive: -0.206
5,GGUGACCAUCAAAUGUGGCTT against B230317C12Rik,inactive: -0.495
6,GGCCCUCAAUACCUGUGGUTT against Olfr690,inactive: 0.67
7,GGUUCACCACAGGUCUUGUTT against 4932408F19Rik,inactive: -0.919
8,GGACAUUGUUAAAGGCAUATT against Kpna2,inactive: 0.434
9,GCAAAACUCAUUGAAAGUGTT against 4930569K13Rik,inactive: 0.558
10,GGAUAUUUUUGGCAGCCCUTT against Slco1b2,inactive: 2.09
11,CCACAAAACCACACCAGUGTT against Olfr24,inactive: -3.21
12,CCUCAGUGCUUACUUUGAATT against Dusp3,inactive: -0.82
13,GGACAACCCAGUCUCAAAATT against Mrpl43,inactive: -0.571
14,GGACCUCCACCGUUACUACTT against Sgsh,inactive: -0.509
15,GGAUGCUCAGGAGAAGCUGTT against Tpm3,inactive: -1.4
16,GCCAGUAUUAGCCUAGAUCTT against 2200002K05Rik,inactive: -1.12
17,GGCAAUUUCCAAGCAGUUUTT against Wnt8b,inactive: 0.377
18,GGCAAAUUUAGAUAAGUACTT against Cyp39a1,inactive: 0.471
19,GGAUGAAGAAAACUGGCUUTT against Tsx,inactive: -0.857
20,GCAUGGGCAUAACCGAAAGTT against Rex2,inactive: 0.836
21,GGAAAGCUUUAAAAAAUCCTT against Mlh1,inactive: 0.956
22,GCAUCCUUAGUGAUUUCUATT against 4930570C03Rik,inactive: -1.32
23,GGUGGGAUGCAGAUCUUUGTT against Ubc,inactive: -0.357

row,Sequence,z-score
1,GGGAGGAUACCUUCUAUGUTT against Crebl1,inactive: 1.48
2,CCAUUGAUCGUUUAGUCAATT against Trim33,inactive: 0.806
3,GGAAGAGGUGCAGCAAAUUTT against Wdr23,inactive: -0.92
4,GGAAAAAAGAUGAAUUGCCTT against Cbx8,inactive: 0.773
5,GGUAGAAAACAUAAAUGGUTT against AU024582,inactive: 0.814
6,GUACCUCAUUUUUAGCACATT against V1rc26,inactive: 0.452
7,GGAUCCCAGUUCUGGGUAATT against Dok1,inactive: 0.232
8,CCAAAGUAAACUGGAUGUUTT against Gm638,inactive: 1.11
9,GGUGAAAGCAGAAAUGGAGTT against Dpysl5,inactive: 1.2
10,GGUUCCAAAGUGUUUCUGATT against Nsmaf,inactive: 0.176
11,GGUCAAAAGGAUUCCUGCATT against Gzmk,inactive: 0.249
12,GGCCUAUGUCCACAAGAGUTT against 2010012C16Rik,inactive: -0.175
13,CGUACAUCGUCGAGAUUUUTT against Rims1,inactive: 0.376
14,GGGCAUUAGGAAUUAGGGCTT against 0610010D20Rik,inactive: 0.727
15,GGUGUUUGGCUACCAUACCTT against C630015F21Rik,inactive: 0.281
16,GGACAUUCUUUAAGAAGAUTT against Tjp3,inactive: -1.56
17,GCAGGAUUGUUAAGAGAAATT against Gnaq,inactive: -1.15
18,GGACCAUACAUAUUCAAAATT against 4632417K02,inactive: -0.213
19,GGAAGUGGUUGCUAAGCGATT against Park2,inactive: -1.46
20,GGUAAAAAUAGCAACAGAATT against Cpxm2,inactive: -0.395
21,GGUGUGUUCCAUAUGACAATT against P2rx7,inactive: -0.38

# Retrieved one by one from the entries so far, three records:
row,Sequence,z-score
6,GGGAAAACUUGGGUAUUUCTT against Pgrmc1,inactive: 0.906
17,GCAGGAUUGUUAAGAGAAATT against Gnaq,inactive: -1.15
4,GGCCCAGGUGGAUAGUUAUTT against AU016693,inactive: -0.206
